Assay results from the supplement of paper PMC11006884.
Only a part is listed here, and it is no random draw.

By UniProt entry, the sequences of proteins in these tests, tags left out. Where a name states a change or a piece, a line headed by the entry shows the natural chain unless it says otherwise.
UniProt Q8N1I0: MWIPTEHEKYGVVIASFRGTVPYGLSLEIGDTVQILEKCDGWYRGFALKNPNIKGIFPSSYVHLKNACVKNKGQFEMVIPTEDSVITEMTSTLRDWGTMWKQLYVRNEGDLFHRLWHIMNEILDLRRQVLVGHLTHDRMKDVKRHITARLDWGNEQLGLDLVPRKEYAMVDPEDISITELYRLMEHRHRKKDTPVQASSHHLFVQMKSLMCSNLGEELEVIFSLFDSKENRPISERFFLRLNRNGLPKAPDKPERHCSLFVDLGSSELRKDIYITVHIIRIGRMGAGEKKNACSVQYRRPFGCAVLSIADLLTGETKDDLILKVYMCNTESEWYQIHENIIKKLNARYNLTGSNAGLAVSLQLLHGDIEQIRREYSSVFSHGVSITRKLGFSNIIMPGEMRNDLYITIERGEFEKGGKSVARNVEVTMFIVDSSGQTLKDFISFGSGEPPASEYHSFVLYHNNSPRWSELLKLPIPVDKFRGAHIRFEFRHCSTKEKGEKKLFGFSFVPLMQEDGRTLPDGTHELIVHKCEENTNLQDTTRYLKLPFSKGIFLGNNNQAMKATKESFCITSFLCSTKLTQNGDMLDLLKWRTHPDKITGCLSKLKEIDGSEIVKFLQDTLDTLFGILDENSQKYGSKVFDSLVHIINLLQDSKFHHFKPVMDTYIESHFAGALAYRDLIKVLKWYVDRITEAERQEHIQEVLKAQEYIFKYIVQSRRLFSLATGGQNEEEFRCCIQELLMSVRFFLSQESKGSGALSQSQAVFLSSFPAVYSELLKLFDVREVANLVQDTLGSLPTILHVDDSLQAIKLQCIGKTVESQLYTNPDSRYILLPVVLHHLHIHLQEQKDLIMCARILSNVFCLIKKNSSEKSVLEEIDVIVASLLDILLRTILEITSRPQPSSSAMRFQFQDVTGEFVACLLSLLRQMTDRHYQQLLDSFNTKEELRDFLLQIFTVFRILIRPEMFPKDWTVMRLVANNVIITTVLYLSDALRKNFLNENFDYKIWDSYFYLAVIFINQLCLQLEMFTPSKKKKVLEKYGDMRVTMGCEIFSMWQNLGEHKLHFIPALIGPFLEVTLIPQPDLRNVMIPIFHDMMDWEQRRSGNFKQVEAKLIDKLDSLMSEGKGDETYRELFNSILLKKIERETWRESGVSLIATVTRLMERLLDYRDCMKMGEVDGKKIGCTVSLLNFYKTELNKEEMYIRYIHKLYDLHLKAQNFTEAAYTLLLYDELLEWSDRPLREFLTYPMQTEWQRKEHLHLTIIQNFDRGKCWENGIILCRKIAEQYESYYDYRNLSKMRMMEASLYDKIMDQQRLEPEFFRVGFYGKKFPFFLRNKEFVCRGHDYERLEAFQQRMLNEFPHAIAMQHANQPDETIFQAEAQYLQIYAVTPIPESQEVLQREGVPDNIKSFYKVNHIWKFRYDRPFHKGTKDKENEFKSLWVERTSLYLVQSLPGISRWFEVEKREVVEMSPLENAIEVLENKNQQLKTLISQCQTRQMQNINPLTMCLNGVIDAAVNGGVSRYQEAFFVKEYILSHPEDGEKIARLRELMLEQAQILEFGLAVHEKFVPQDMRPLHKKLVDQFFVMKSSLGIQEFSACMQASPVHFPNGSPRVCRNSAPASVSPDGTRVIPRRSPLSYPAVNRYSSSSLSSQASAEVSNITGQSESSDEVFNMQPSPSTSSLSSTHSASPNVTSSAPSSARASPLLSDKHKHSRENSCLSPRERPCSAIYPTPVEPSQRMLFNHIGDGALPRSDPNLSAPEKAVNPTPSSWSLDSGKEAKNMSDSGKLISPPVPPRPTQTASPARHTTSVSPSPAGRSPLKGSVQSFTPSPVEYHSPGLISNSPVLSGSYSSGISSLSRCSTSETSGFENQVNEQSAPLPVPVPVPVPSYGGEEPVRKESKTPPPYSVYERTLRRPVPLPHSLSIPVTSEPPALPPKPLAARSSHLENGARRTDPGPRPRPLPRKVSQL
UniProt Q8N9N5: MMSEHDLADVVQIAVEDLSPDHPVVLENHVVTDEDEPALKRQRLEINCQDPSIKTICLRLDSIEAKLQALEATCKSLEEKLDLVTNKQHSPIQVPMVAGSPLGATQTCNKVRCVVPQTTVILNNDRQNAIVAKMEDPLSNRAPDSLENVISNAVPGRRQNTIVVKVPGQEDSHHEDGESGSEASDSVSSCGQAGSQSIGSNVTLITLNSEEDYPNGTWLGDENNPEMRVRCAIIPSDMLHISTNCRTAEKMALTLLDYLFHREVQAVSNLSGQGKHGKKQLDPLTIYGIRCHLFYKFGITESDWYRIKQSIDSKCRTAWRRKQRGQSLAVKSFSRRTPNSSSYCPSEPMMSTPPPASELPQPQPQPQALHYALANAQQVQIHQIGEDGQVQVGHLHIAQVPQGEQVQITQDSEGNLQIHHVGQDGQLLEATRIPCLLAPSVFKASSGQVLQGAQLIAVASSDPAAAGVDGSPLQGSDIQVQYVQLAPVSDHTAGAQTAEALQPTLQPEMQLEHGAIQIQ
UniProt Q8WYN0: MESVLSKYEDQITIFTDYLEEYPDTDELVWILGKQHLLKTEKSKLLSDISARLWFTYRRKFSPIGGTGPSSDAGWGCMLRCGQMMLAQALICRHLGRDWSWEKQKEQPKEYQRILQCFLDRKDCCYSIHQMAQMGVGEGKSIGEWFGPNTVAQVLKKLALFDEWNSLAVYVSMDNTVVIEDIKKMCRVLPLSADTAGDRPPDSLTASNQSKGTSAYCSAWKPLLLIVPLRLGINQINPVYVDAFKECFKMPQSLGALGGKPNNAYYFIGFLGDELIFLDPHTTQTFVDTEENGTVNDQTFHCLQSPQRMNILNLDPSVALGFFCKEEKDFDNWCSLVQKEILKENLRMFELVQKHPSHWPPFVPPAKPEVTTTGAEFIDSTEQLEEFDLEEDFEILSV
UniProt Q8WTS6: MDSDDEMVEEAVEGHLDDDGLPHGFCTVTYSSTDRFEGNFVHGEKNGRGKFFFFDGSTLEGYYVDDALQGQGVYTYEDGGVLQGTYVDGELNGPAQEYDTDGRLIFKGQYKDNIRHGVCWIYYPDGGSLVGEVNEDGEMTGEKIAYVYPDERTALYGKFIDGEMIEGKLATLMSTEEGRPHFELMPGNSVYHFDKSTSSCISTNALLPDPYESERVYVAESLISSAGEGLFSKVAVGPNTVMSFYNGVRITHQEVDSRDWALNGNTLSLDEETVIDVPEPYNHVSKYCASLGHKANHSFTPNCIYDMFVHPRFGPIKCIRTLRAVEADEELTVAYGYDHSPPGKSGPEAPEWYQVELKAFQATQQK
UniProt Q8IZV5: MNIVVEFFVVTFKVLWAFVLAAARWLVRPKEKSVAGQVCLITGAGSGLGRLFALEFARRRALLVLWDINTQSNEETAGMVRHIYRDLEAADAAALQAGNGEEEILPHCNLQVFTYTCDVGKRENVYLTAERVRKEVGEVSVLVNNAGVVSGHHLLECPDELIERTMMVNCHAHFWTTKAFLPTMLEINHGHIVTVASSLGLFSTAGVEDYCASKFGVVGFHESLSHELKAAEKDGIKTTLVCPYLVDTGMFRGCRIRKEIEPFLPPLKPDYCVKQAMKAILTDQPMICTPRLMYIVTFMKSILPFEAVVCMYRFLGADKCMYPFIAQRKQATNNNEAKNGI
UniProt Q8NEC7: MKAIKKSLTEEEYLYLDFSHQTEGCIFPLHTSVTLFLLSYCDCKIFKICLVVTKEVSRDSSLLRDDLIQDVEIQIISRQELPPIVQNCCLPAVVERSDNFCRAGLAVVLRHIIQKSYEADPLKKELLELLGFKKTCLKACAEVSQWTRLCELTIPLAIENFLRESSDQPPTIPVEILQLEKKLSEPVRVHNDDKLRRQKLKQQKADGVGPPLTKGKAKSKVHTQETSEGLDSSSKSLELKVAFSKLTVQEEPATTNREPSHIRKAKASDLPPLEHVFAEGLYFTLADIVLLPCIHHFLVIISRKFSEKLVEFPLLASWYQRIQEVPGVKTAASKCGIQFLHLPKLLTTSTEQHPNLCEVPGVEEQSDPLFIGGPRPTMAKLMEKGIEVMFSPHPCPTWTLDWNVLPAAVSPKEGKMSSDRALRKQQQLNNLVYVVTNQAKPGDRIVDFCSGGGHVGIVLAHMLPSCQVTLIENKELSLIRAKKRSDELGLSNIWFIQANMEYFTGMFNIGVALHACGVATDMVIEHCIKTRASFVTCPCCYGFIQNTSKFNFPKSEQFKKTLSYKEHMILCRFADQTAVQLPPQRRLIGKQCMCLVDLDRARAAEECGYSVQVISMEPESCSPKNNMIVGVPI
UniProt Q8TBB5: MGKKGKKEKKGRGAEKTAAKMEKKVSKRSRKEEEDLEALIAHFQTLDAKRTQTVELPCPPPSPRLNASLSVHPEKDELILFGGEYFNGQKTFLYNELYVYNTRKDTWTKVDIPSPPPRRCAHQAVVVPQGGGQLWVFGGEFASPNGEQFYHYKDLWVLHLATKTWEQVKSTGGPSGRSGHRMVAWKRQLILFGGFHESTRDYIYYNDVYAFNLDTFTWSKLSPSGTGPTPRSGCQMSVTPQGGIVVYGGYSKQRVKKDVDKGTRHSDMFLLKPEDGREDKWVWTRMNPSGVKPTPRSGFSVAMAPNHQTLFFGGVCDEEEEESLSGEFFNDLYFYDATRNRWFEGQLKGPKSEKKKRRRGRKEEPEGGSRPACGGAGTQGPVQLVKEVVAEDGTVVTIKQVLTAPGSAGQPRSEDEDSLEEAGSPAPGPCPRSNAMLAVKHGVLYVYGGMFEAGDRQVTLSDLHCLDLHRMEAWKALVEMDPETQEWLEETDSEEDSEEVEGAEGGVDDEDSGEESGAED
UniProt Q8N392: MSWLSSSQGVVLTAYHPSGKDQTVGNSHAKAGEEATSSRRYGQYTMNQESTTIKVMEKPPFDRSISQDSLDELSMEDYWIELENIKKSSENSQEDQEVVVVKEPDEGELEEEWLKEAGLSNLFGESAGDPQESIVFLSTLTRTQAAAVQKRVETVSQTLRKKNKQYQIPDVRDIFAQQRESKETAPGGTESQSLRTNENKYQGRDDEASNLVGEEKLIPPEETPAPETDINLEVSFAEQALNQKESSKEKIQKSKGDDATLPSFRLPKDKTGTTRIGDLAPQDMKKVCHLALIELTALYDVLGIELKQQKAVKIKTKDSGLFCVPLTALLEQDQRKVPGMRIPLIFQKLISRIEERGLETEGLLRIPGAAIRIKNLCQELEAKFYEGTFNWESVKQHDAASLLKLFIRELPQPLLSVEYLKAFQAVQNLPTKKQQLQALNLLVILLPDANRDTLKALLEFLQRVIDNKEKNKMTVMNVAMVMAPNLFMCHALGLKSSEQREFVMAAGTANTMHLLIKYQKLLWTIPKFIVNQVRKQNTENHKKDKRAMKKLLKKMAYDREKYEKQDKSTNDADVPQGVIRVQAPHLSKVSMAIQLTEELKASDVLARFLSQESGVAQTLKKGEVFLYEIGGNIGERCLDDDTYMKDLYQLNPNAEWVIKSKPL
UniProt Q8NEY8: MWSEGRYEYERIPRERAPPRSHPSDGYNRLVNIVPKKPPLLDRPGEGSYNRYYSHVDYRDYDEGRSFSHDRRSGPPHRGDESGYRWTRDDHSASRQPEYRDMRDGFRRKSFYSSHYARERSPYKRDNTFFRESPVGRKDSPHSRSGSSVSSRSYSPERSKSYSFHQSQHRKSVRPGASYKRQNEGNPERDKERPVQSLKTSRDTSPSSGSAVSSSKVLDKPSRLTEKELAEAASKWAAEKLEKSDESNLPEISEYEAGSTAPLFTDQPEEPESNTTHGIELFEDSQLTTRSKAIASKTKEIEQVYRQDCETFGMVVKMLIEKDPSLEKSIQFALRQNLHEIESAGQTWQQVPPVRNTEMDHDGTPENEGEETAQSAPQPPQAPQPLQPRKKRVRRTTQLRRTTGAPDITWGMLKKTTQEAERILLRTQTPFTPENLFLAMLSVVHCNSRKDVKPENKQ
UniProt Q8N8A6: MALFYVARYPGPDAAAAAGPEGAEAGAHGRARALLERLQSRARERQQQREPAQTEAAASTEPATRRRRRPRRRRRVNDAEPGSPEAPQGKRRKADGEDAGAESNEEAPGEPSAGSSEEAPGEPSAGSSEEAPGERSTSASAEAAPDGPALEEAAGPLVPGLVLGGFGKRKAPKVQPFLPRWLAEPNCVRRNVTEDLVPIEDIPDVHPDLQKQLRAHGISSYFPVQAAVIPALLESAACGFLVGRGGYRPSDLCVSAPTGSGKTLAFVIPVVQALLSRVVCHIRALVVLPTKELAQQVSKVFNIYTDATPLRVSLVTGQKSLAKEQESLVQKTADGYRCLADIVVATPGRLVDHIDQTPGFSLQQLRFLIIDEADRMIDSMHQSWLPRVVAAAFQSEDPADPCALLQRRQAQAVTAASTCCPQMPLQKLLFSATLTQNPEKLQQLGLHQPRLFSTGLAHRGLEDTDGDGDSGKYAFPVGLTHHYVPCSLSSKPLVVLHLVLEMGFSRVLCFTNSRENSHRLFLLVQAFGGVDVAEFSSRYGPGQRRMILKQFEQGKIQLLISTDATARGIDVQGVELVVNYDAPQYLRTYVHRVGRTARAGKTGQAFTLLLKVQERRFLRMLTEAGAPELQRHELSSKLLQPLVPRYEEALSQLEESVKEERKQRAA

Compound: COC(=O)C#Cc1ccccc1 [methyl 3-phenylpropiolate]
Assay: log2 ratio of iodoacetamide-alkyne labeling of the cysteine site, DMSO over compound (competition); higher = stronger covalent engagement of the cysteine by the compound, active = 1 or more
Conditions: 500 µM; treatment time 1 h; system: HEK293T cell lysate
Method in brief: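 HEK293T lysate (2 mg/mL) was treated with DMSO or electrophile (500 µM, 1 h, ambient temperature), then iodoacetamide alkyne (1 h), clicked to sCIP-TMT reagents, pooled, trypsin-digested overnight at 37 °C, streptavidin-enriched and acid-eluted. Peptides were run on Orbitrap Eclipse LC-MS/MS with FAIMS and quantified in FragPipe. The log2 competition ratio per cysteine is mean control-channel over mean compound-channel reporter intensity. Duplicate channels and three replicates were used, and cysteines quantified in only one replicate were excluded.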

| Target | log2 ratio of iodoacetamide-alkyne labeling |
| --- | --- |
| UniProt Q8N1I0_C1857 | inactive: 0.45 |
| GEMIN6 C128 (UniProt Q8WXD5) | inactive: 0.475 |
| IPO4 C350 (UniProt Q8TEX9) | inactive: 0.564 |
| BANP C113 (UniProt Q8N9N5) | inactive: 0.609 |
| ATG4A C217 (UniProt Q8WYN0) | inactive: 0.291 |
| INTS1 C1534 (UniProt Q8N201) | inactive: 0.294 |
| LSM14A C375 (UniProt Q8ND56) | inactive: 0.671 |
| MICALL1 C597 (UniProt Q8N3F8) | inactive: 0.47 |
| UniProt Q8N0X7_C562 | inactive: 0.00694 |
| NPLOC4 C208 (UniProt Q8TAT6) | inactive: -0.0596 |
| SERBP1 C11 (UniProt Q8NC51) | inactive: 0.221 |
| SETD7 C200 (UniProt Q8WTS6) | inactive: 0.34 |
| RDH10 C272 (UniProt Q8IZV5) | inactive: 0.324 |
| DNAJB14 C192 (UniProt Q8TBM8) | inactive: 0.0368 |
| GSTCD C335 (UniProt Q8NEC7) | inactive: 0.19 |
| KLHDC4 C430 (UniProt Q8TBB5) | inactive: 0.264 |
| RB1CC1 C1413 (UniProt Q8TDY2) | inactive: 0.483 |
| MPP5 C366 (UniProt Q8N3R9) | inactive: 0.615 |
| NPEPL1 C504 (UniProt Q8NDH3) | inactive: -0.0356 |

| Target | log2 ratio of iodoacetamide-alkyne labeling |
| --- | --- |
| ARHGAP18 C323 (UniProt Q8N392) | inactive: 0.19 |
| UniProt Q8NC60_C505 | inactive: -0.174 |
| SPATA5 C291 (UniProt Q8NB90) | inactive: 0.294 |
| ENAH C7 (UniProt Q8N8S7) | inactive: -0.0222 |
| AHCTF1 C1131 (UniProt Q8WYP5) | inactive: 0.589 |
| CTNNBL1 C370 (UniProt Q8WYA6) | inactive: -0.0869 |
| GPD1L C9 (UniProt Q8N335) | inactive: 0.107 |
| INTS1 C969 (UniProt Q8N201) | inactive: 0.652 |
| SPATA5 C81 (UniProt Q8NB90) | inactive: 0.128 |
| PPHLN1 C309 (UniProt Q8NEY8) | inactive: 0.444 |
| SRBD1 C120 (UniProt Q8N5C6) | inactive: 0.471 |
| RNF214 C149 (UniProt Q8ND24) | inactive: 0.395 |
| DGCR8 C514 (UniProt Q8WYQ5) | inactive: 0.147 |
| IPO4 C782 (UniProt Q8TEX9) | inactive: 0.597 |
| ARFGAP1 C96 (UniProt Q8N6T3) | inactive: 0.33 |
| UniProt Q8TE02_C203 | inactive: -0.0789 |
| DDX51 C402 (UniProt Q8N8A6) | inactive: 0.39 |
| ARFGAP1 C351 (UniProt Q8N6T3) | inactive: 0.472 |

Reformatted with tabs: part of the list above.
Target	log2 ratio of iodoacetamide-alkyne labeling
RNF214 C149 (UniProt Q8ND24)	inactive: 0.395
DGCR8 C514 (UniProt Q8WYQ5)	inactive: 0.147
